Laboratory results: PubChem BioAssay AID1159599 (NIAID, 2016)

- Aim: 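Mouse macrophage genes that control Tnf-alpha promoter output upon LPS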
- Cells: mouse RAW264.7 G9 macrophage reporter clone cells
- Reagents: single siRNA against mouse genes
- Duration: 48 to 72 h after siRNA transfection, LPS for the last 16 h
- Challenge: LPS (Salmonella minnesota R595), 16 h before fixation; dose not stated
- Detection: 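Nuclear mCherry from a Tnf promoter reporter imaged after LPS, background removed, robust z-score from per-plate median and MAD, averaged over replicates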
- Direction: Tnf reporter z-score: higher = stronger Tnf promoter reporter signal after LPS
- Hit rule: 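Called active if the mean z-score over replicates passes 1.5 in either direction, up or down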
- Meaning of the calls: active = strong change either way; inactive = little change
The whole screen tested 756 reagents; this is a random part of them. In the full data, 130 (17%) are marked active. 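Calls are two-sided: actives include siRNAs that raised the Tnf reporter as well as ones that lowered it.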 The numbers tell different reagents against one gene apart. The record does not give: the amount of reagent.

target	reagent	Tnf reporter z-score, replicate mean	Call
Tlr9	1	-0.103	inactive
Tlr9	2	-2.14	active
Tlr9	3	1.59	active
Tlr9	4	-0.0508	inactive
Tlr9	5	-0.461	inactive
Tlr9	6	-1.31	inactive
Elk4	1	-0.114	inactive
Elk4	2	-0.0486	inactive
Elk4	3	-0.4	inactive
Elk4	4	0.525	inactive
Elk4	5	-1.32	inactive
Elk4	6	-1.26	inactive
Pik3ca	1	0.242	inactive
Pik3ca	2	1.18	inactive
Pik3ca	3	0.0122	inactive
Pik3ca	4	-2.51	active
Pik3ca	5	-0.839	inactive
Pik3ca	6	0.952	inactive
Tnf	1	-0.232	inactive
Tnf	2	1.06	inactive
Tnf	3	-1.02	inactive
Tnf	4	-0.547	inactive
Tnf	5	-0.191	inactive
Tnf	6	-2.25	active
Map2k4	1	0.725	inactive
Map2k4	2	-0.175	inactive
Map2k4	3	-0.114	inactive
Map2k4	4	0.8	inactive
Map2k4	5	-1.21	inactive
Map2k4	6	-1.04	inactive
Akt3	1	-0.632	inactive
Akt3	2	-0.356	inactive
Akt3	3	-1.45	inactive
Akt3	4	-0.0747	inactive
Akt3	5	-1.26	inactive
Akt3	6	-0.24	inactive
Map2k7	1	2.47	active
Map2k7	2	-0.857	inactive
Map2k7	3	-1.11	inactive
Map2k7	4	-0.566	inactive
Map2k7	5	0.369	inactive
Map2k7	6	-0.778	inactive
Mapk1	1	-0.843	inactive
Mapk1	2	-1.5	inactive
Mapk1	3	-1.51	active
Mapk1	4	-0.306	inactive
Mapk1	5	-0.0356	inactive
Mapk1	6	0.0171	inactive

Part of the list above, set out differently.
{"target":"Tlr9","reagent":3,"Tnf reporter z-score, replicate mean":1.59,"Call":"active"}
{"target":"Tlr9","reagent":4,"Tnf reporter z-score, replicate mean":-0.0508,"Call":"inactive"}
{"target":"Tlr9","reagent":5,"Tnf reporter z-score, replicate mean":-0.461,"Call":"inactive"}
{"target":"Tlr9","reagent":6,"Tnf reporter z-score, replicate mean":-1.31,"Call":"inactive"}
{"target":"Elk4","reagent":1,"Tnf reporter z-score, replicate mean":-0.114,"Call":"inactive"}
{"target":"Elk4","reagent":2,"Tnf reporter z-score, replicate mean":-0.0486,"Call":"inactive"}
{"target":"Elk4","reagent":3,"Tnf reporter z-score, replicate mean":-0.4,"Call":"inactive"}
{"target":"Elk4","reagent":4,"Tnf reporter z-score, replicate mean":0.525,"Call":"inactive"}
{"target":"Elk4","reagent":5,"Tnf reporter z-score, replicate mean":-1.32,"Call":"inactive"}
{"target":"Elk4","reagent":6,"Tnf reporter z-score, replicate mean":-1.26,"Call":"inactive"}
{"target":"Pik3ca","reagent":1,"Tnf reporter z-score, replicate mean":0.242,"Call":"inactive"}
{"target":"Pik3ca","reagent":2,"Tnf reporter z-score, replicate mean":1.18,"Call":"inactive"}
{"target":"Pik3ca","reagent":3,"Tnf reporter z-score, replicate mean":0.0122,"Call":"inactive"}

The list goes on.
target	reagent	Tnf reporter z-score, replicate mean	Call
Nfkbia	1	1.24	inactive
Nfkbia	2	-1.68	active
Nfkbia	3	1.49	inactive
Nfkbia	4	-0.281	inactive
Nfkbia	5	0.575	inactive
Nfkbia	6	0.104	inactive
Mapk10	1	2.14	active
Mapk10	2	0.897	inactive
Mapk10	3	-1.17	inactive
Mapk10	4	0.548	inactive
Mapk10	5	-0.058	inactive
Mapk10	6	-1.09	inactive
Cxcl9	1	-1.11	inactive
Cxcl9	2	0.536	inactive
Cxcl9	3	0.278	inactive
Cxcl9	4	-1.34	inactive
Cxcl9	5	-0.0468	inactive
Cxcl9	6	0.45	inactive
Mapk8	1	1.95	active
Mapk8	2	0.366	inactive
Mapk8	3	-1.26	inactive
Mapk8	4	0.197	inactive
Mapk8	5	-0.352	inactive
Mapk8	6	-0.956	inactive
Tab2	1	-0.124	inactive
Tab2	2	0.0308	inactive
Tab2	3	-0.518	inactive
Tab2	4	0.244	inactive
Tab2	5	-1.06	inactive
Tab2	6	-1.16	inactive
Nfkb1	1	0.326	inactive
Nfkb1	2	-1.13	inactive
Nfkb1	3	0.197	inactive
Nfkb1	4	0.951	inactive
Nfkb1	5	-0.362	inactive
Nfkb1	6	0.0131	inactive
Tollip	1	0.865	inactive
Tollip	2	-1.58	active
Tollip	3	-1.12	inactive
Tollip	4	-0.252	inactive
Tollip	5	1.42	inactive
Tollip	6	-0.861	inactive
Tlr1	1	0.608	inactive
Tlr1	2	0.164	inactive
Tlr1	3	-0.206	inactive
Tlr1	4	0.565	inactive
Tlr1	5	-0.187	inactive
Tlr1	6	-0.851	inactive
Ticam2	1	-0.85	inactive
Ticam2	2	-0.874	inactive
Ticam2	3	-1.71	active
Ticam2	4	-0.488	inactive
Ticam2	5	-0.746	inactive
Ticam2	6	-1.45	inactive
Map3k7	1	-0.322	inactive
Map3k7	2	0.799	inactive
Map3k7	3	-0.86	inactive
Map3k7	4	0.622	inactive
Map3k7	5	-0.653	inactive
Map3k7	6	-1.71	active
Ripk1	1	-0.828	inactive
Ripk1	2	-0.321	inactive
Ripk1	3	1.11	inactive
Ripk1	4	3.76	active
Ripk1	5	-1	inactive
Ripk1	6	2.37	active
